Laboratory results: US20200199174A1, “NOVEL FLUORESCENT LABELING METHOD” (priority 2017, published 2020)
For at least one compound, name, drawing or mass did not settle the structure.

System: 5D4 (Y96F)
Assay: Dissociation rate constant of anti-DNP scFv mutant and probe (stopped-flow, competition with DNP)
Type: binding, mouse
Conditions: Y96F mutant
Text: An amino acid mutation was introduced into an MBP-scFv protein coding region by circular PCR with pMalc5E-5D4 as a template, using a thermostable polymerase KOD Plus (TOYOBO) and forward and reverse primers including a codon modified to correspond to the desired amino acid mutation. The resultant linear PCR product was circularized using a Ligation Kit Version 2 (TAKARA), and an MBP-scFv mutant expression construct was obtained.
A flow channel in a stopped-flow apparatus (Bio-logic) was filled with a pretreatment liquid in which 1% w/v gelatin was dissolved in a phosphate buffer solution (pH 7.4) (PBS), and blocking was performed by leaving the apparatus at room temperature for at least 30 minutes, after which the flow channel was thoroughly washed with Milli-Q water. Using the apparatus, PBS in which MBP-5D4 or a variant thereof at a concentration of 100 nM or less and a probe at a concentration of 1 μM were dissolved, and PBS in which 100 μM DNP as a competitive substance was dissolved were mixed at a 1:1 ratio, and a fluorescence change was measured. At this time, the excitation/fluorescence wavelengths used were 510 nm/529-556 nm for the DCF probe and 650 nm/672-712 nm for the SiR probe, and measurement was performed under conditions of a temperature of 25-27C. […]

## CN(C)c1ccc2c(c1)[Si](C)(C)C1=CC(=[N+](C)C)C=CC1=C2c1cc(C(=O)NCCOCCOCCNc2ccc(C#N)cc2[N+](=O)[O-])ccc1C(=O)[O-] [Probe 6SiR-pCNoNP, 4-((2-(2-(2-((4-cyano-2-nitrobenzyl)amino)ethoxy)ethoxy)ethyl)carbamoyl)-2-(7-(dimethylamino)-3-(dimethylamino)-5,5-dimethyl-3,5-dihydrodibenzo[b,e]silin-10-yl)benzoate]
  dissociation rate: 14 s⁻¹
